Measured values from publication PMC7000207.
No constants are given. Whether binding was seen depends on the method and setting. Binding seen in cells or lysates may run through a third protein. Some results given as binding are weak or reduced against the parent protein; the word gives no strength.

Amino acid sequences for entries named in this document (tags omitted). Residues count along the entry.
UniProt P09055, residues 21-798: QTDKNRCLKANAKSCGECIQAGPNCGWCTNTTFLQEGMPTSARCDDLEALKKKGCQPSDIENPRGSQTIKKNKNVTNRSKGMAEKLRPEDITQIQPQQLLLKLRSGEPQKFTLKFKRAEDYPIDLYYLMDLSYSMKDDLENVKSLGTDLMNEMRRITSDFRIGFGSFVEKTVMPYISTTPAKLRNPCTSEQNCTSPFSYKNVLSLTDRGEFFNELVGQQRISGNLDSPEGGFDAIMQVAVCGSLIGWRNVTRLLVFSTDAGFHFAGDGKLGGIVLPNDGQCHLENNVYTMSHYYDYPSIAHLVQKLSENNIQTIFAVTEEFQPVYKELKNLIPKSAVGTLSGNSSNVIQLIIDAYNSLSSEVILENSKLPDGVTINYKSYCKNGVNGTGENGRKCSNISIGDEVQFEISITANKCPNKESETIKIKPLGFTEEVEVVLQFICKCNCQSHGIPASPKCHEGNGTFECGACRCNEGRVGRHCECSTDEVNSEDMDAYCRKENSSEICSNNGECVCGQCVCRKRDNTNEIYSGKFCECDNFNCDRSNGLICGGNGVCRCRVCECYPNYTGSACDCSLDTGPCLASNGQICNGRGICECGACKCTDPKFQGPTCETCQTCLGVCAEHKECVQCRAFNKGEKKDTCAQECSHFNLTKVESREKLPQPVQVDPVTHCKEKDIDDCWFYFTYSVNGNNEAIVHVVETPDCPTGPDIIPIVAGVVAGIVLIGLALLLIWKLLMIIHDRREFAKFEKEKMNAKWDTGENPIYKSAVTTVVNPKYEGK
UniProt Q9QUK6, residues 26-835: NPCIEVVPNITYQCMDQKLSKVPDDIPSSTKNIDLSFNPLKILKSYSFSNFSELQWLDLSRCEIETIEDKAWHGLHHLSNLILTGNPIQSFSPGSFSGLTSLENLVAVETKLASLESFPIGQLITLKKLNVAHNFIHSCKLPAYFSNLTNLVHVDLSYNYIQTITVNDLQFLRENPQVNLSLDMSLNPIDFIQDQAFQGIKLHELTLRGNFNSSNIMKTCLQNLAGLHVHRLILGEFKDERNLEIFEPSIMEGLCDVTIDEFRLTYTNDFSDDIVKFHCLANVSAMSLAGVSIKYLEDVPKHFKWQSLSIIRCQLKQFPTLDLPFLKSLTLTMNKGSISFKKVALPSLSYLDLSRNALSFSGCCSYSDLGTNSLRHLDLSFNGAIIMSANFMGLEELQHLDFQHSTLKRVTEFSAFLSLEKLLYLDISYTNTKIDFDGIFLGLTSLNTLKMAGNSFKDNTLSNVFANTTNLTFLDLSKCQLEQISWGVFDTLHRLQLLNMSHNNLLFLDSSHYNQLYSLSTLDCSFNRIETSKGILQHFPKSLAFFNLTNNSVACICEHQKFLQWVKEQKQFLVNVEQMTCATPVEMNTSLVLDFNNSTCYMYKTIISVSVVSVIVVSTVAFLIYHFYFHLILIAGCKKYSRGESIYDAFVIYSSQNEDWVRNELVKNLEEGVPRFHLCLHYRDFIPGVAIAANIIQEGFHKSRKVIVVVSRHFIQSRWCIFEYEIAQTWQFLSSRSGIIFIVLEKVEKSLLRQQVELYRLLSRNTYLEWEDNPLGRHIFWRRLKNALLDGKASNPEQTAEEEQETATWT

Target: integrin β1 (cluster of differentiation 29, CD29) (mouse (endogenous in peritoneal macrophages)) (UniProt P09055)
Assay: FRET or BRET; acceptor-photobleaching FRET by laser confocal microscopy on mouse peritoneal macrophages on coverslips; AF488-conjugated TLR4 or TLR2 antibody (donor) and AF594-conjugated integrin β1 antibody (acceptor), 1:200, 37°C; cells fixed with 3.7% paraformaldehyde; cells treated with LPS (TLR4) or PGN (TLR2), with or without FN

binding: binds
Substance: toll-like receptor 4 (TLR4) (from UniProt Q9QUK6 26-835)
